These are yes or no findings as the source states them, for the method shown. Binding seen in cells or lysates may run through a third protein. A yes stands for co-enrichment or nearness to the bait. Other partners may have been found.
T1: Sc_Snt2p (S. cerevisiae) (UniProt P53127)
T1 sequence: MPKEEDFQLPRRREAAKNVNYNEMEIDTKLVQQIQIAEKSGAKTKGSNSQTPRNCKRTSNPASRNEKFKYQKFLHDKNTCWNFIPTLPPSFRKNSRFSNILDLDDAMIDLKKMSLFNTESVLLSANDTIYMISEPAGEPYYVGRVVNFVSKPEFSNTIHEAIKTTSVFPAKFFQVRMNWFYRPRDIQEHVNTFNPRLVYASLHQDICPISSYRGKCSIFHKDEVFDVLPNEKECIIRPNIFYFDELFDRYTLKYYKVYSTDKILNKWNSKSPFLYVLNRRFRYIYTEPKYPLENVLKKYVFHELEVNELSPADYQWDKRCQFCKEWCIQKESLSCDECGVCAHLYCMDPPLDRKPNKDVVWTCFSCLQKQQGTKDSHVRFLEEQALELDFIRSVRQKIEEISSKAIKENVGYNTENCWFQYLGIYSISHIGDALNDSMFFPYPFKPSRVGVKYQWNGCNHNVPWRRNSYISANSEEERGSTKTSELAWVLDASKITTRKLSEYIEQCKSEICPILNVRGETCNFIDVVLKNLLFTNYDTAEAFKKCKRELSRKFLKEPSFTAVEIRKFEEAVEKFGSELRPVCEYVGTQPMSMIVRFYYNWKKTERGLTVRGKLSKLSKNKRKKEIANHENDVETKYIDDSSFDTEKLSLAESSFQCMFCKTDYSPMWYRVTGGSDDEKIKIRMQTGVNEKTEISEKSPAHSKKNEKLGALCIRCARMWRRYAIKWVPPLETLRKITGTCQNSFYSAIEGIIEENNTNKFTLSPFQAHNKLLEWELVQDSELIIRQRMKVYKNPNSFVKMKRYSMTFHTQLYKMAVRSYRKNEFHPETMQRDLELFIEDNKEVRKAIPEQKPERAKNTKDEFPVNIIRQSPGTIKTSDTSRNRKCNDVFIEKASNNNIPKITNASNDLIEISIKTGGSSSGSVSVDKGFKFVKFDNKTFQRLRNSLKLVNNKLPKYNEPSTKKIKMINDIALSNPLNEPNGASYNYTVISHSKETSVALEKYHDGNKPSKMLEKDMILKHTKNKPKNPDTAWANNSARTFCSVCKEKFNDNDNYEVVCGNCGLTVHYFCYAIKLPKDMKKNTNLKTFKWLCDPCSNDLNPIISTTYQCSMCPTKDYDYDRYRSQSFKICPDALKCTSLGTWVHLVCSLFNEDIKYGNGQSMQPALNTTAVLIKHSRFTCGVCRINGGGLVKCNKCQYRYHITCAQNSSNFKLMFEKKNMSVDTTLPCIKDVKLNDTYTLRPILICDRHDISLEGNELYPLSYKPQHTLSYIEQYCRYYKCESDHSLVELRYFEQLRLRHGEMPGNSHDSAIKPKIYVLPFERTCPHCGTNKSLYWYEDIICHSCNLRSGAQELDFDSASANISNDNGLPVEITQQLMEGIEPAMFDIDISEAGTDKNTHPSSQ

T2: Sc_Rpd3p (S. cerevisiae) (UniProt P32561)
T2 sequence: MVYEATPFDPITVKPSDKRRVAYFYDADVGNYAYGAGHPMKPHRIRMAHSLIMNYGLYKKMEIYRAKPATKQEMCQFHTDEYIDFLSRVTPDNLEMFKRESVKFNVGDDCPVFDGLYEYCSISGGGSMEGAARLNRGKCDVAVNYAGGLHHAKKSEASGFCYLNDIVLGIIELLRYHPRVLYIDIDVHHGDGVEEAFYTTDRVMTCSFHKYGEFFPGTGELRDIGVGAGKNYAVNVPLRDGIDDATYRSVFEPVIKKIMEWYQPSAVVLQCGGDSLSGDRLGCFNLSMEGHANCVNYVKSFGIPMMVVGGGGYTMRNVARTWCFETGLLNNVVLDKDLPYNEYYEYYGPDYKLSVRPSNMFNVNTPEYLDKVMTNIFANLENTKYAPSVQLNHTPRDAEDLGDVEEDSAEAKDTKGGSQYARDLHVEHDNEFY

T3: Sp_Alp13p (S. pombe), O13953
T3 chain: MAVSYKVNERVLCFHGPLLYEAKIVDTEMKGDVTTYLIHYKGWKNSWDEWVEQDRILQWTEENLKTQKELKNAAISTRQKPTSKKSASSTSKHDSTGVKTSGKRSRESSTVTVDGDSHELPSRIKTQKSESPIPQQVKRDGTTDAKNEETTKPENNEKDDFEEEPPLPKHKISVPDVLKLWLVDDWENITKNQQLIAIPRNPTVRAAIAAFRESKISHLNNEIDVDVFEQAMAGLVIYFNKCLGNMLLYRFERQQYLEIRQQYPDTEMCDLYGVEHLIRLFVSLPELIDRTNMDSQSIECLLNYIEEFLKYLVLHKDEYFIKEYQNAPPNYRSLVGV

B1: Sc_Ecm5p (protein, UniProt Q03214 1-1411)
chain: MSGHDSVTKISHILNEPVNEKVMVQNGFHESSKIADIELEIQERPSIKQWESPRSAVIPTSNHNFSPFLYTQFKSRGAAPFAPETIKSVDLVELPEGVPARVFHEKTGLFYQISPHSIPTFILAKKELPDPIKFYELVEDLGSVYGCVKLKIIPDADKFTQLNVDVDRLWFKARKQFFNSNEFQRTKIVDFYAKLYNFHNKIKKSTLTRIPSIDKRTLDLYRLRSCVKLRGGFNAVCEKKLWAQIGRELGYSGRIMSSLSTSLRSAYAKILLDFDIYEEEEQAARNNEKNEDMVESEIFRHSNSRSRDEEEPLHKKAKIHRDVFRAGSINHEFKRMRDIKHIKGFPTYFNSLTEFKLGYTQSTETTLPGYDFTFWENGMEIYDKSKYETKTSPVYNLRQYYEKSLAVFTAIVAKFGSSYPDLFAKHTTLPQKEFERLYFHLLSEHFIDFEIDTGLGLPCSMRSPGNNSSNEKFAIKNILDQWNLDNIPLNELSLLQHLDLDMANFTRTTYDIGMLFSCQGWSVSDHFLPSIDFNHLGSTKLVYSIAPKDMEKFEALIARGKSEWDTIQSRPRYSTSDDELKSFIETDFYKSFLDAEQSADYSNTGDNSKNSFPEDKIAGNTLHDGSQSDFIFEPNFILANGIKLYKTTQEQGSYIFKFPKAFTCSIGSGFYLSQNAKFAPSSWLRFSSEAAKWTSKMGFLPGLDVNQLLINALLNSNNPVLRKKCRDLISNYVVEEAENSKKLGELIGTVDVVYNKLNYISDISLESTGLSKIVVTHGALQRNLSLKEFVVLLEKPENGAHSICGIPIRDQSGNLNVCLHSYFDSASLGIALDGLDKPPTSYLLVHNEDFEKKWDVLMTSTFRNRTVPLNIIQYLISHTDSNTEFNRMLRSNFDDSLLLIEKCKKFIKTFVDVSCSVKDVDFGNGFNLRHLPLKFSDNMADNLESLYESVRKCSIEFSEKPTIIRLYHVSRQFPIDNRDIIDGNNLDLLKELYQKSLTIPLKVSYWTKLTRKICRLEWLSVYEHIFIERCDIKNEDPAKYSLPLLYSYFEFGLKYCDSEDIDKLGEVRKLILKYQDMMQKVRVFLKKDPPSKISLSDLEDVLLDIEEYRLPIQSSFFSELDYVIREIENAKKMNDVNILYNTDNIDKIDELIRKNDPKFVKFANQFNGSRLDKRPLASDNSGSVKAKQELKVFKLWNQHLDQIMQKNKFIEILPSIFRCLDLKSDKYIPLESCSKRQTKYCFCRRVEEGTAMVECEICKEWYHVDCISNGELVPPDDPNVLFVCSICTPPCMAVDNIEGVTFELDDLKRILVESLKLSLIPDPPILKNLFDVFAFALNFKNEMEKELFTNGYVNQLSSTHKIKYYLRKLKGSQCGFTNLTDPLRKHCQVKDAEAIKWLTDNGRIIITGIPN
B2: Sp_Prw1p, O14021 1-431 (protein)
chain: MAVSAVPHPSKQAQASEEGINQEKCINEEYKIWKKNSPFLYDLIITRALEWPCMSLQWYPEQQIFAEHGYTEQKMFLGVRADVGKYLLAVASIQLPYLNQTVPPTTMEGASAGDESSLRVNISNLYSHPESVCSAKLMPQDDSCVATVGNYHNDVLVFDKESFESYSSASESPLKPKYRLTKHTQPCTSVCWNFLSKGTLVSGSQDATLSCWDLNAYNESDSASVLKVHISSHEKQVSDVRFHYKHQDLLASVSYDQYLHVHDIRRPDASTKPARSVHAHSGPIHSVAFNPHNDFILATCSTDKTIALWDLRNLNQRLHTLEGHEDIVTKISFSPHEEPILASTSADRRTLVWDLSRIGEDQPAEEAQDGPPELLFMHGGHTSCTIDMDWCPNYNWTMATAAEDNILQIWTPSRSIWGNEQLEEDATAYLS

Tests used:
Sc_Snt2p (S. cerevisiae) = target: T1, Sc_Snt2p (S. cerevisiae); assay: affinity purification with mass spectrometry; TAP of baits TAP-tagged at their genes from S. cerevisiae extracts; eluates on 6-18% gels, Coomassie, bands and slices identified by MALDI peptide mapping and LC-MS/MS; common background removed, A-index cut-off 1.75
Sc_Rpd3p (S. cerevisiae) = target: T2, Sc_Rpd3p (S. cerevisiae); assay: as above
[1] = target: T3, Sp_Alp13p (S. pombe), O13953; assay: affinity purification with mass spectrometry; TAP of baits TAP-tagged at their genes from S. pombe extracts; eluates on 6-18% gels, Coomassie, bands and slices identified by MALDI peptide mapping and LC-MS/MS; common background removed, A-index cut-off 1.75; conditions: remark: other sources report otherwise

Row | Binder | binding (Sc_Snt2p (S. cerevisiae)) | binding (Sc_Rpd3p (S. cerevisiae)) | binding [1]
1 | B1 | binds | binds | –
2 | B2 | – | – | binds
